Experimental data reported in US20230146239A1 (THE SCRIPPS RESEARCH INSTITUTE, priority 2020, published 2023).
≈ marks a conversion by molar mass, not a printed value. Read-outs that look alike come from different tables or passages of the source.

Legend:
[1] = tested on: VanB E. faecalis ATCC 51299; assay type: cell-based, Enterococcus faecalis
[2] = tested on: VanA VRE E. faecalis (BM 4166); assay: Impact of added LTA, phosphate, POPE on antimicrobial activity (MIC); assay type: cell-based, Enterococcus faecalis; settings: for MIC, −NaH2PO4 / MIC, −POPE: E. faecalis BM 4166; for MIC, +LTA: E. faecalis BM 4166, LTA 100 μg/mL; for MIC, +NaH2PO4: E. faecalis BM 4166, NaH2PO4 100 μg/mL; for MIC, +POPE: E. faecalis BM 4166, POPE 100 μg/mL; for MIC, −LTA: E. faecalis BM 4166, no LTA
Method: (§1) When NaH2PO4 or POPE was used instead of LTA, 10% brain-heart infusion broth containing 0.002% Tween®-80 with 100 μg/mL NaH2PO4 or 100 μg/mL POPE was used as the culture medium used for serial dilution. When additional G3 (H2N^+(CH2)3NHC(NH2)═NH2^+.2TFA) or Mg^2+ was used, 10% brain-heart infusion broth containing 0.002% Tween®-80 with 100 μg/mL G3 or 100 μg/mL MgCl2 and 100 μg/mL lipoteichoic acid was used as the culture medium for serial dilution of study group, 10% brain-heart infusion broth containing 0.002% Tween®-80 with 100 μg/mL G3 was used as the culture medium for serial dilution of control group.

[3] = tested on: VanA E. faecalis BM 4166 or ATCC BAA-2573; assay type: cell-based, Enterococcus faecalis
[4] = tested on: VanA E. faecalis (BM 4166); assay: In vitro antimicrobial microdilution assay (MIC); assay type: cell-based, Enterococcus faecalis
[5] = tested on: two VanA VRE strains (E. faecalis BM4166, E. faecium ATCC BAA-2317); assay: Resistance development assay, durability (serial passaging at 0.5×MIC); assay type: cell-based, Enterococcus faecalis, Enterococcus faecium
Method: The lowest concentration of antibiotic (in μg/mL) capable of eliminating cell growth in the wells is the reported MIC value.
A new MIC assay was performed with the same protocol above. This process was repeated for 50 passages, and the fold increase in MIC was determined after each passage.

[6] = tested on: VanA VRE E. faecalis BM 4166 and E. faecium ATCC BAA-2317; assay type: cell-based, Enterococcus faecalis, Enterococcus faecium
Method: The above bacterial solution was subjected to a subculture to obtain fresh mid-log phase bacterial cells (incubation time=6 hours). The bacterial suspension was diluted to a total volume of 7 mL with OD600=0.6.
After the cultured bacteria were harvested (3000 rpm, 4° C., 20 minutes), the white bacterial precipitate was washed and resuspended in 5 mM glucose and 5 mM HEPES buffer (1:1, 5.00 mL, pH=7.2).

[7] = tested on: VanA VRE E. faecium (ATCC BAA2317); assay type: cell-based, Enterococcus faecium; settings: for MIC, −NaH2PO4 / MIC, −POPE: E. faecium ATCC BAA-2317; for MIC, LTA concentration 10 μg/mL: E. faecium ATCC BAA-2317, LTA 10 μg/mL; for MIC, +LTA: E. faecium ATCC BAA-2317, LTA 100 μg/mL; for MIC, +NaH2PO4: E. faecium ATCC BAA-2317, NaH2PO4 100 μg/mL; for MIC, +POPE: E. faecium ATCC BAA-2317, POPE 100 μg/mL; for MIC, −LTA: E. faecium ATCC BAA-2317, no LTA (0 μg/mL)
Method: as §1

[8] = tested on: Sensitive S. aureus ATCC 25923; assay: In vitro antimicrobial microdilution assay (MIC); assay type: cell-based, Staphylococcus aureus
[9] = tested on: VanA E. faecalis (ATCC BAA-2573); assay: In vitro antimicrobial microdilution assay (MIC); assay type: cell-based, Enterococcus faecalis
[10] = tested on: MRSA S. aureus ATCC 43300; assay type: cell-based, Staphylococcus aureus
[11] = tested on: VanA E. faecium (ATCC BAA-2317); assay: In vitro antimicrobial microdilution assay (MIC); assay type: cell-based, Enterococcus faecium
VanA E. faecium (TX2465) = assay: In vitro antimicrobial microdilution assay (MIC); assay type: cell-based, Enterococcus faecium
VanA VRE, 4 strains = assay: Antimicrobial activity against VanA VRE panel (4 strains), summarised in text; assay type: cell-based, Enterococcus faecalis, Enterococcus faecium
[12] = Maximum tolerated dose (MTD) / tolerability; assay type: in vivo; settings: mice, PK studies; MTD not established
red blood cells = assay: Hemolysis assay
[13] = tested on: VanA VRE E. faecalis BM 4166 and E. faecium ATCC BAA-2317; settings: 10 μM, LTA 100 μg/mL
[14] = tested on: VanA VRSA strain VRS2 (S. aureus); settings: sc once at 2 hours, thigh CFU/g at 26 hours
[15] = Mouse pharmacokinetics, iv; settings: for MRTlNF—obs: mice, iv
Method: Plasma was obtained by centrifugation using a microcentrifuge fit with a hematocrit rotor, and obtained plasma was immediately frozen. The use of micro-sampling blood collection reduces the total blood taken from the mouse and allows a single mouse to be used for the entire time course, reducing inter-individual variability and maintaining the health of the mouse.
Drug levels were determined by mass spectrometry using an ABSciex 5500 mass spectrometer using multiple reaction monitoring. […] All PK work was conducted in the Scripps Florida vivarium which is fully AAALAC accredited. Procedures were approved by the Scripps Florida IACUC, protocol number 15-022.

CN[C@H](CC(C)C)C(=O)N[C@H]1C(=O)N[C@@H](CC(N)=O)C(=O)N[C@H]2C(=O)NC3C(=O)N[C@H](C(=O)N[C@H](C(=O)NCCCNC(=N)N)c4cc(O)cc(O)c4-c4cc3ccc4O)[C@H](O)c3ccc(c(Cl)c3)Oc3cc2cc(c3OC2OC(CO)C(O)[C@H](O)[C@@H]2O[C@H]2CC(C)(N)[C@H](O)[C@H](C)O2)Oc2ccc(cc2Cl)[C@H]1O (some centres unmarked) [Compound 5, G3-vancomycin]
MIC, VanB E. faecalis ATCC 51299 [1]: 8 µg/mL (≈ 5.17 µM)
MIC, −NaH2PO4 [2]: 16 µg/mL (≈ 10.3 µM)
MIC, −POPE [2]: 16 µg/mL (≈ 10.3 µM)
MIC, +LTA [2]: 16 µg/mL (≈ 10.3 µM)
MIC, +NaH2PO4 [2]: 16 µg/mL (≈ 10.3 µM)
MIC, +POPE [2]: 16 µg/mL (≈ 10.3 µM)
MIC, −LTA [2]: 16 µg/mL (≈ 10.3 µM)
MIC, VanA E. faecalis [3]: 4 µg/mL (≈ 2.58 µM)
MIC, VanA E. faecalis BM 4166 [4]: 16 µg/mL (≈ 10.3 µM)
resistance acquisition on serial passaging ([5]; 50 passages, 0.5×MIC): lost their activity
bacterial cell membrane permeabilization ([6]; elevated concentration (50 μM)): weak permeabilization
MIC, −NaH2PO4 [7]: 4 µg/mL (≈ 2.58 µM)
MIC, −POPE [7]: 4 µg/mL (≈ 2.58 µM)
MIC, LTA concentration 10 μg/mL [7]: 4 µg/mL (≈ 2.58 µM)
MIC, +LTA [7]: 8 µg/mL (≈ 5.17 µM)
MIC, +NaH2PO4 [7]: 4 µg/mL (≈ 2.58 µM)
MIC, +POPE [7]: 4 µg/mL (≈ 2.58 µM)
MIC, −LTA [7]: 4 µg/mL (≈ 2.58 µM)
MIC, Sensitive S. aureus ATCC 25923 [8]: 0.25 µg/mL (≈ 0.162 µM)
MIC, VanA E. faecalis ATCC BAA-2573 [9]: 4 µg/mL (≈ 2.58 µM)
MIC, MRSA S. aureus ATCC 43300 [10]: 0.12 µg/mL (≈ 0.0775 µM)
MIC, VanA E. faecium ATCC BAA-2317 [11]: 4 µg/mL (≈ 2.58 µM)
MIC, VanA E. faecium TX2465 (VanA E. faecium (TX2465)): 16 µg/mL (≈ 10.3 µM)
more potent than C1-vancomycin (Compound 3) (VanA VRE, 4 strains; VanA VRE): 4 fold

CN[C@H](CC(C)C)C(=O)N[C@H]1C(=O)N[C@@H](CC(N)=O)C(=O)N[C@H]2C(=O)NC3C(=O)N[C@H](C(=O)N[C@H](C(=O)NCCCNC(=N)N)c4cc(O)cc(O)c4-c4cc3ccc4O)[C@H](O)c3ccc(c(Cl)c3)Oc3cc2cc(c3OC2OC(CO)C(O)[C@H](O)[C@@H]2O[C@H]2CC(C)(NCc3ccc(-c4ccc(Cl)cc4)cc3)[C@H](O)[C@H](C)O2)Oc2ccc(cc2Cl)[C@H]1O (some centres unmarked) [Compound 15, G3-CBP-vancomycin]
MIC, VanB E. faecalis ATCC 51299 [1]: 0.04 µg/mL (≈ 0.0229 µM)
decrease of antimicrobial activity by added LTA ([2]; 100 μg/mL LTA, both VanA VRE strains): 8 fold
effect of H2PO4^− or POPE on MIC ([2]; 100 μg/mL, both VanA VRE strains): did not alter the MIC
MIC, −NaH2PO4 [2]: 0.6 µg/mL (≈ 0.343 µM)
MIC, −POPE [2]: 0.6 µg/mL (≈ 0.343 µM)
MIC, + G3^+, +LTA ([2]; E. faecalis BM 4166, G3^+ 100 μg/mL, LTA 100 μg/mL): 5 µg/mL
MIC, + G3^+, −LTA ([2]; E. faecalis BM 4166, G3^+ 100 μg/mL, no LTA): 0.6 µg/mL
MIC, +LTA [2]: 5 µg/mL (≈ 2.86 µM)
MIC, + Mg^2+, +LTA ([2]; E. faecalis BM 4166, MgCl2 100 μg/mL, LTA 100 μg/mL): 5 µg/mL
MIC, + Mg^2+, −LTA ([2]; E. faecalis BM 4166, MgCl2 100 μg/mL, no LTA): 0.6 µg/mL
MIC, +NaH2PO4 [2]: 0.6 µg/mL (≈ 0.343 µM)
MIC, +POPE [2]: 0.6 µg/mL (≈ 0.343 µM)
MIC, −LTA [2]: 0.6 µg/mL (≈ 0.343 µM)
tolerated at doses up to and including [12]: ≤ 50 mg/kg
MIC, VanA E. faecalis [3]: 0.15 µg/mL (≈ 0.0858 µM)
hemolytic activity (red blood cells): no hemolytic activity
MIC, VanA E. faecalis BM 4166 [4]: 0.6 µg/mL (≈ 0.343 µM)
MIC at the end of the study ([5]; 50 days): 1.2 to 2.5 µg/mL
increase in MIC ([5]; 50 days, 0.5×MIC): 4 fold
increase in MIC ([5]; over 25 days, 0.5×MIC): 2 fold
bacterial cell membrane permeabilization ([6]; 10 μM added at 5 minutes): strong membrane permeabilization
MIC, −NaH2PO4 [7]: 0.3 µg/mL (≈ 0.172 µM)
MIC, −POPE [7]: 0.3 µg/mL (≈ 0.172 µM)
MIC, + G3^+, +LTA ([7]; E. faecium ATCC BAA-2317, G3^+ 100 μg/mL, LTA 100 μg/mL): 2.5 µg/mL
MIC, + G3^+, −LTA ([7]; E. faecium ATCC BAA-2317, G3^+ 100 μg/mL, no LTA): 0.3 µg/mL
MIC, LTA concentration 10 μg/mL [7]: 0.6 µg/mL (≈ 0.343 µM)
MIC, +LTA [7]: 2.5 µg/mL (≈ 1.43 µM)
MIC, + Mg^2+, +LTA ([7]; E. faecium ATCC BAA-2317, MgCl2 100 μg/mL, LTA 100 μg/mL): 2.5 µg/mL
MIC, + Mg^2+, −LTA ([7]; E. faecium ATCC BAA-2317, MgCl2 100 μg/mL, no LTA): 0.3 µg/mL
MIC, +NaH2PO4 [7]: 0.3 µg/mL (≈ 0.172 µM)
MIC, +POPE [7]: 0.3 µg/mL (≈ 0.172 µM)
MIC, −LTA [7]: 0.3 µg/mL (≈ 0.172 µM)
MIC, Sensitive S. aureus ATCC 25923 [8]: 0.04 µg/mL (≈ 0.0229 µM)
permeabilization in the presence of exogenous LTA [13]: nearly or completely abolished
reduction in bacterial count ([14]; 12.5 and 25 mg/kg): more than 2 log10
reduction in bacterial count ([14]; 50 or 100 mg/kg): ~3 log10
MIC, VanA E. faecalis ATCC BAA-2573 [9]: 0.15 µg/mL (≈ 0.0858 µM)
MIC, MRSA S. aureus ATCC 43300 [10]: 0.02 µg/mL (≈ 0.0114 µM)
MIC, VanA E. faecium ATCC BAA-2317 [11]: 0.3 µg/mL (≈ 0.172 µM)
MRTlNF—obs ([15]; 10 mg/kg): 3.9 h
MRTlNF—obs ([15]; 50 mg/kg): 4.6 h
terminal half-life in mice (t1/2) ([15]; mouse, in vivo): 4.3 to 4.4 h
MIC, VanA E. faecalis TX 2465 (VanA E. faecium (TX2465); Table 2 head as printed): 0.6 µg/mL (≈ 0.343 µM)
more potent than vancomycin (VanA VRE, 4 strains): about 1000 fold
